US7459156 (University of California, dated 2008)
These are yes or no findings as the source states them, for the method shown. Some binding calls cover weakened binding; strength is not graded here.

By UniProt entry, the sequences of proteins in these tests, tags left out. Residues count along the entry.
UniProt P07174, residues 30-425: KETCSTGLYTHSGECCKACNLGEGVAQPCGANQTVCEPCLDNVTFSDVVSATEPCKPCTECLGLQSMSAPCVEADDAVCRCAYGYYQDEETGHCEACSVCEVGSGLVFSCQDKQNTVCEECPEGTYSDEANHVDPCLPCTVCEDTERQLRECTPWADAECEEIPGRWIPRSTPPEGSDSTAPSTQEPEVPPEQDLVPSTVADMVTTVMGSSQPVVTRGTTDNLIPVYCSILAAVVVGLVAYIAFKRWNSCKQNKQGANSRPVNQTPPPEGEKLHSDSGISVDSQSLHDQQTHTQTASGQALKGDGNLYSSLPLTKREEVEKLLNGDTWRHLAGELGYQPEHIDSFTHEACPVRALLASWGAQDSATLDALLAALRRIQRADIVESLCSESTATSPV
UniProt P01139, residues 122-241: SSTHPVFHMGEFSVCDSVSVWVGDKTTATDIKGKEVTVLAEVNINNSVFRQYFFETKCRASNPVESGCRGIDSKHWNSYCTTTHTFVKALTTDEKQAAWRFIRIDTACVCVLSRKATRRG

Target: low affinity nerve growth factor receptor (LNGFR) on PC12 cells (rat) (UniProt P07174)
Experiment: NGF cross-linking assay on cells

Substance: nerve growth factor (NGF) (from UniProt P01139 122-241) (ligand)
- binding: binds
